According to article PMC11574277:

Target: T1, FLAG-ATG9A (3×FLAG-tagged ATG9A, on ATG9 vesicles) (UniProt Q7Z3C6)
T1 sequence: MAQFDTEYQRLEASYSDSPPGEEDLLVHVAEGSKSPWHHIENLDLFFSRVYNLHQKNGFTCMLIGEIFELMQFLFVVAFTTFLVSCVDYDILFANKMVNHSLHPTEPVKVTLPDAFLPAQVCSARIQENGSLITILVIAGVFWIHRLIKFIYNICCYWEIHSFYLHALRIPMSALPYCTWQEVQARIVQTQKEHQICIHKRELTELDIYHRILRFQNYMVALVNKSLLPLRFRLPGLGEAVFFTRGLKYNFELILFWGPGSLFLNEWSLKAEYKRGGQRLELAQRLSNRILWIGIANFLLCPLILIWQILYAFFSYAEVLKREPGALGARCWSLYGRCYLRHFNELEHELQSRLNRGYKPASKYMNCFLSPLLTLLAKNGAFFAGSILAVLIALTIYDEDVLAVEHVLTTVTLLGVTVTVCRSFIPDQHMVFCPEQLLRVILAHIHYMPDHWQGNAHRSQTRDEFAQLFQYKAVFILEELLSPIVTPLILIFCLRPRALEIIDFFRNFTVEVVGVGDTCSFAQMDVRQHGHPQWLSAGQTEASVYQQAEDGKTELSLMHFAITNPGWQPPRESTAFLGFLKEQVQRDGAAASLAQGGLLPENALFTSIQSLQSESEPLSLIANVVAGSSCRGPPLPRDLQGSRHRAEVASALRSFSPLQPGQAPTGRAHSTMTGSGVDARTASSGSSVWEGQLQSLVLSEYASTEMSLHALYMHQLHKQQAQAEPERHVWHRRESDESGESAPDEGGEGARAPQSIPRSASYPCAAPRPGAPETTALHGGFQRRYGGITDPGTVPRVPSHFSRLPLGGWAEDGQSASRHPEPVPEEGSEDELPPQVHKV
Assay: co-IP; organelle immunoprecipitation: ATG9 vesicles precipitated by FLAG M2 beads from Dounce homogenate in hypotonic buffer (10 mM HEPES pH 7.9, 1.5 mM MgCl2, 10 mM KCl, no detergent named), cells 60 min after CCCP; GFP blotted

binding: binds
Substance: GFP–OPTNΔUBAN (muGFP-tagged optineurin lacking the UBAN domain, aa 445–502)

These are yes or no findings as the source states them, for the method shown. Binding seen in cells or lysates may run through a third protein. Binding calls can cover weak binding; strength is not graded here. Where a sequence is shown, tags or fusion partners need not be part of it.
